Source: the supplement of paper PMC6411743
± gives the standard deviation of the averaged measurements. The list shows a part of the results, in another mix than the full data. Most values lie at the level of the controls, where differences are scatter.

Chains of the proteins cited; added tags and fusions are not shown.
UniProt P54709, whole entry: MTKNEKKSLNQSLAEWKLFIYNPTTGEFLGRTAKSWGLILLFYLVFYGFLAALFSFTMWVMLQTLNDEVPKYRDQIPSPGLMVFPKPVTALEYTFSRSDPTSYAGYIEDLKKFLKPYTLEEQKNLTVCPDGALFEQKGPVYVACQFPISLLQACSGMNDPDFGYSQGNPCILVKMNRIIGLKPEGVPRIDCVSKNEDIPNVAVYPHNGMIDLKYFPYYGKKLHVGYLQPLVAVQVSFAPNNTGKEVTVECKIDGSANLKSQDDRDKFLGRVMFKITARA

Molecular target: ATP1B3 (UniProt P54709)
Experiment: NP40-soluble protein abundance relative to vehicle (solubility fold change) (ratio); higher = more soluble protein in presence of ATP
Procedure, shortened: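 In three independent experiments, Jurkat crude lysate made by Dounce homogenisation was treated for 10 min at room temperature and then 3 min at 37 °C with eight concentrations ranging from 0.1 to 10 mM. It was then solubilised with 0.8% NP40 plus benzonase for 60 min at 4 °C and ultracentrifuged. The supernatant was TMT-labelled for LC-MS/MS, and each value is the fold change against the detergent-processed vehicle for the same replicate, using vsn-normalised intensities.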

In the case of `Nc1ncnc2c1ncn2[C@@H]1O[C@H](COP(=O)(O)OP(=O)(O)OP(=O)(O)O)[C@@H](O)[C@H]1O` [adenosine triphosphate], the NP40-soluble protein abundance (concentration: 0.1mM) is reported as 0.995 ± 0.069 and the NP40-soluble protein abundance (concentration: 0.5mM) is reported as 0.969 ± 0.02.
